In paper PMC10117718 one finds binding data, which are given here for one molecule.

The target in the assay is KhpB (E. faecalis V583) (E. faecalis V583 (endogenous in E. faecalis lysate)). Briefly: affinity purification with mass spectrometry; native KhpB immunoprecipitated from E. faecalis lysate (OD 2) with polyclonal anti-KhpB serum on protein A sepharose beads, 4°C, 2 h; lysis buffer 20 mM Tris/HCl pH 8.0, 150 mM KCl, 1 mM MgCl2, 1 mM DTT; preimmune sera as control; organic layer precipitated with methanol and analysed by LC-MS/MS.

These are yes or no findings as the source states them, for the method shown. In cells and extracts the contact can be indirect. Here binding means that the protein was enriched with, or labelled near, the bait; the list need not be complete.

B1: tryptophan–tRNA ligase (E. faecalis V583) (enzyme, UniProt Q830U2 1-336)
chain: MKTIFSGIQPSGTPTIGNYIGAMKQFIELQNEYNCYFCIVDEHAITVPQEPQKLRQQIRSLAALYLAVGLDPQKATIFIQSEVSAHAEAGWIIQCNTSIGELERMTQFKDKSQKNGRAGVSAGLLTYPPLMVGDIVLYNADLVPVGDDQKQHLELTRDFVERFNKRYAQKNQEILTIPEVKIAEQGSRIMSLQEPTKKMSKSDTNVKGFISMLDEPAVIRKKIRSAVTDSTGVIEYNKEEKPGITNLLNIYSAATGQTVEELVQAYEGKGYGDFKADLAEAVVALLEPIQVRYQELLASEELDMILDEGAENARLVANKTLQRMKNAVGLGRKVRR
For the molecule B1, the binding entry is listed as “binds”.
